Measured values taken from PMC6904836 (International Journal for Parasitology: Drugs and Drug …, 2019).

Assays:
[1] = test system: L. tropica (MHOM/SU/74/K-27 WR-2995); experiment: Luciferase amastigote macrophage assay in RAW 264.7; type: cell-based; details: Leishmania tropica, RAW264.7, 96 h, read-out: EC50 L. tropica
[2] = test system: L. major (MHOM/SA/85/JISH118); experiment: L. major - BALB/c mouse model of CL; type: in vivo, BALB/c mice; details: for % reduction Lesion size / % reduction Parasite load: 10 days, n = 5; for % reduction Parasite load: qPCR day 11
[3] = 50 mg/kg/day, compared to the untreated control

O=[N+]([O-])c1cn2c(n1)O[C@@H](COc1ccc(-c3ccc(F)cc3)nc1)CC2 [DNDI-0690] was tested, and the EC50 [1] was 2360 nM, the “lesion size reduction” value [2, 3] was “no visible nodule” and the “reduction of the parasite load as measured by qPCR” value [2, 3] was about 2 log-fold. For the same molecule, the “% reduction Lesion size” value ([2]; Oral, 6.25 mg/kg, QD) was 72.1%, the “% reduction Parasite load” value ([2]; Oral, 6.25 mg/kg, QD) was 50.19% and the “% reduction Lesion size” value ([2]; Oral, 12.5 mg/kg, QD) was 74.3%. The “% reduction Parasite load” value ([2]; Oral, 12.5 mg/kg, QD) was 81.24%, the “% reduction Lesion size” value ([2]; Oral, 25 mg/kg, QD) was 86.4% and the “% reduction Parasite load” value ([2]; Oral, 25 mg/kg, QD) was 84.18%. The “% reduction Lesion size” value ([2]; Oral, 50 mg/kg, QD) was 100.0%, the “% reduction Parasite load” value ([2]; Oral, 50 mg/kg, QD) was 94.89% and the “% reduction Parasite load” value ([2]; Topical, Sat sol in PG-EtOH (1:1), 50 μl BID) was 50.74%.
